Test results published in article PMC4476799, “Englerin A Agonizes the TRPC4/C5 Cation Channels to Inhibit Tumor Cell Line Proliferation” (PLoS ONE, 2015).
This continues a long series; more values of the same kind are listed elsewhere.

System: cancer cell lines from the cancer cell line encyclopedia (CCLE)
Test: Cell line profiling (CLiP) proliferation experiment
Type: cell-based
Set-up: ACTIVITY_AREA: scale not given here; AMAX: unit not given here
Procedure: Compound profiling experiment and data analysis was performed as previously described. Data was imported and plotted using the Tibco Spotfire DXP application. Lines were categorized as sensitive, intermediate and refractory as follows: Amax<-40 & Inflection Point <2 ~ Sensitive, Amax>-20 & Inflection Point >10 ~ Refractory, all else were called Intermediate. Cancer Cell line HG-U133 Plus 2 data was processed and normalized as described. […] Five sets of refractory cell lines were generated from the pool of refractory cell lines trying to match the lineage composition of the set of sensitive cell lines. The limma package was used as previously described to perform the statistical comparison.

[1] = cell line HPB-ALL (haematopoietic_and_lymphoid_tissue, acute_lymphoblastic_T_cell_leukaemia)
[2] = cell line HPB-ALL, haematopoietic_and_lymphoid_tissue
[3] = cell line HRT-18, large_intestine
[4] = cell line HT55, large_intestine
[5] = cell line HT115, large_intestine
[6] = cell line HT, haematopoietic_and_lymphoid_tissue
[7] = cell line HT-29, large_intestine
[8] = cell line HT-1376, urinary_tract
[9] = cell line HTK-, haematopoietic_and_lymphoid_tissue

CC(C)[C@@]12C[C@@H](O)[C@@](C)(O1)[C@@H]1CC[C@@H](C)[C@H]1[C@@H]2OC(=O)/C=C/c1ccccc1 [Englerin B]
RESPONSE (cell line HLC-1): INTERMEDIATE
ACTIVITY_AREA (cell line HLC-1, lung): 32.85
AMAX (cell line HLC-1, lung): -47.99
RESPONSE (cell line HLC-1, lung): INTERMEDIATE
ACTIVITY_AREA (cell line HLF): 27.05
AMAX (cell line HLF): -47.22
RESPONSE (cell line HLF): INTERMEDIATE
ACTIVITY_AREA (cell line HLF, liver): 27.05
AMAX (cell line HLF, liver): -47.22
RESPONSE (cell line HLF, liver): INTERMEDIATE
ACTIVITY_AREA (cell line HMC-1-8): 36.92
AMAX (cell line HMC-1-8): -50.5
RESPONSE (cell line HMC-1-8): INTERMEDIATE
ACTIVITY_AREA (cell line HMC-1-8, breast): 36.92
AMAX (cell line HMC-1-8, breast): -50.5
RESPONSE (cell line HMC-1-8, breast): INTERMEDIATE
ACTIVITY_AREA (cell line HMCB): 13.52
AMAX (cell line HMCB): -46.55
RESPONSE (cell line HMCB): INTERMEDIATE
ACTIVITY_AREA (cell line HMCB, skin): 13.52
AMAX (cell line HMCB, skin): -46.55
RESPONSE (cell line HMCB, skin): INTERMEDIATE
ACTIVITY_AREA [1]: 20
AMAX [1]: -58.16
RESPONSE [1]: INTERMEDIATE
ACTIVITY_AREA [2]: 20
AMAX [2]: -58.16
RESPONSE [2]: INTERMEDIATE
ACTIVITY_AREA (cell line HRT-18): 47.39
AMAX (cell line HRT-18): -65.56
RESPONSE (cell line HRT-18): INTERMEDIATE
ACTIVITY_AREA [3]: 47.39
AMAX [3]: -65.56
RESPONSE [3]: INTERMEDIATE
ACTIVITY_AREA (cell line HT): 17
AMAX (cell line HT): -2.95
RESPONSE (cell line HT): REFRACTORY
ACTIVITY_AREA (cell line HT55): 21.08
AMAX (cell line HT55): -3.91
RESPONSE (cell line HT55): REFRACTORY
ACTIVITY_AREA [4]: 21.08
AMAX [4]: -3.91
RESPONSE [4]: REFRACTORY
ACTIVITY_AREA (cell line HT115): 76.16
AMAX (cell line HT115): -55.16
RESPONSE (cell line HT115): INTERMEDIATE
ACTIVITY_AREA [5]: 76.16
AMAX [5]: -55.16
RESPONSE [5]: INTERMEDIATE
ACTIVITY_AREA [6]: 17
AMAX [6]: -2.95
RESPONSE [6]: REFRACTORY
ACTIVITY_AREA (cell line HT-29): 70.42
AMAX (cell line HT-29): -59.2
RESPONSE (cell line HT-29): INTERMEDIATE
ACTIVITY_AREA [7]: 70.42
AMAX [7]: -59.2
RESPONSE [7]: INTERMEDIATE
ACTIVITY_AREA (cell line HT-144): 46.48
AMAX (cell line HT-144): -32.14
RESPONSE (cell line HT-144): INTERMEDIATE
ACTIVITY_AREA (cell line HT-144, skin): 46.48
AMAX (cell line HT-144, skin): -32.14
RESPONSE (cell line HT-144, skin): INTERMEDIATE
ACTIVITY_AREA (cell line HT-1080): 7.34
AMAX (cell line HT-1080): -0.25
RESPONSE (cell line HT-1080): REFRACTORY
ACTIVITY_AREA (cell line HT-1080, soft_tissue): 7.34
AMAX (cell line HT-1080, soft_tissue): -0.25
RESPONSE (cell line HT-1080, soft_tissue): REFRACTORY
ACTIVITY_AREA (cell line HT-1376): 133.89
AMAX (cell line HT-1376): -42.01
RESPONSE (cell line HT-1376): INTERMEDIATE
ACTIVITY_AREA [8]: 133.89
AMAX [8]: -42.01
RESPONSE [8]: INTERMEDIATE
ACTIVITY_AREA (cell line HTK-): 27.8
AMAX (cell line HTK-): -51.74
RESPONSE (cell line HTK-): INTERMEDIATE
ACTIVITY_AREA [9]: 27.8
AMAX [9]: -51.74
RESPONSE [9]: INTERMEDIATE
ACTIVITY_AREA (cell line HUP-T3): 9.72
AMAX (cell line HUP-T3): -29.27
RESPONSE (cell line HUP-T3): INTERMEDIATE
ACTIVITY_AREA (cell line HUP-T3, pancreas): 9.72
